Experimental data from doi:10.1101/2020.10.05.326595.
Changes are numbered by the printed parent chain. No constants are given. Whether binding was seen depends on the method and setting. Binding seen in cells or lysates may run through a third protein. Some results given as binding are weak or reduced against the parent protein; the word gives no strength. Where a sequence is shown, tags or fusion partners need not be part of it.

Experiments:
Assay in all cases: co-IP
[1] = target: T1, 3F6H-ZTL Q154L (full-length ZTL Q154L with 3xFLAG-6xHis tag) (UniProt Q94BT6)
T1 sequence: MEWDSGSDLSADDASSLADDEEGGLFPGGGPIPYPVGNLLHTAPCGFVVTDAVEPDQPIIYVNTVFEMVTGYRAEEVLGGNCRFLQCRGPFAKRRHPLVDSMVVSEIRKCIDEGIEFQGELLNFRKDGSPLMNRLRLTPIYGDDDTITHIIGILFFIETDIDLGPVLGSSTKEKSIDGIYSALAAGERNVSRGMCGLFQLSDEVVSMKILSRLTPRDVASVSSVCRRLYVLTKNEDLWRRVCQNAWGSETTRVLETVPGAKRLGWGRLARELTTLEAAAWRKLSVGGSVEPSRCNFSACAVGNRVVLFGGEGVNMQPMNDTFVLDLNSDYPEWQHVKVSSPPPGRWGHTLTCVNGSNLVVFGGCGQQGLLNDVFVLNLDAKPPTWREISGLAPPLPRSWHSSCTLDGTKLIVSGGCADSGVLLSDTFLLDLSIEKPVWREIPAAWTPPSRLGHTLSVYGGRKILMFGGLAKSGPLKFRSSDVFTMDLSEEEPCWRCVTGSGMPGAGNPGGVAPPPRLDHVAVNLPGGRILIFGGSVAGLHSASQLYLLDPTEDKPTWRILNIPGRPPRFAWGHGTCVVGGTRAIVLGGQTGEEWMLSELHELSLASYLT

[2] = target: T2, 3F6H-ZTL G46A (full-length ZTL G46A with 3xFLAG-6xHis tag) (UniProt Q94BT6)
T2 sequence: T1 sequence with G46A, L154Q

[3] = target: T3, 3F6H-ZTL G46S (full-length ZTL G46S with 3xFLAG-6xHis tag) (UniProt Q94BT6)
T3 sequence: T1 sequence with G46S, L154Q

binding [1]: binds
binding [2]: binds
binding [3]: binds
B1: HA-GI (HA-tagged GIGANTEA) (protein, UniProt Q9SQI2 1-1173)
chain: MASSSSSERWIDGLQFSSLLWPPPRDPQQHKDQVVAYVEYFGQFTSEQFPDDIAELVRHQYPSTEKRLLDDVLAMFVLHHPEHGHAVILPIISCLIDGSLVYSKEAHPFASFISLVCPSSENDYSEQWALACGEILRILTHYNRPIYKTEQQNGDTERNCLSKATTSGSPTSEPKAGSPTQHERKPLRPLSPWISDILLAAPLGIRSDYFRWCSGVMGKYAAGELKPPTIASRGSGKHPQLMPSTPRWAVANGAGVILSVCDDEVARYETATLTAVAVPALLLPPPTTSLDEHLVAGLPALEPYARLFHRYYAIATPSATQRLLLGLLEAPPSWAPDALDAAVQLVELLRAAEDYASGVRLPRNWMHLHFLRAIGIAMSMRAGVAADAAAALLFRILSQPALLFPPLSQVEGVEIQHAPIGGYSSNYRKQIEVPAAEATIEATAQGIASMLCAHGPEVEWRICTIWEAAYGLIPLNSSAVDLPEIIVATPLQPPILSWNLYIPLLKVLEYLPRGSPSEACLMKIFVATVETILSRTFPPESSRELTRKARSSFTTRSATKNLAMSELRAMVHALFLESCAGVELASRLLFVVLTVCVSHEAQSSGSKRPRSEYASTTENIEANQPVSNNQTANRKSRNVKGQGPVAAFDSYVLAAVCALACEVQLYPMISGGGNFSNSAVAGTITKPVKINGSSKEYGAGIDSAISHTRRILAILEALFSLKPSSVGTPWSYSSSEIVAAAMVAAHISELFRRSKALTHALSGLMRCKWDKEIHKRASSLYNLIDVHSKVVASIVDKAEPLEAYLKNTPVQKDSVTCLNWKQENTCASTTCFDTAVTSASRTEMNPRGNHKYARHSDEGSGRPSEKGIKDFLLDASDLANFLTADRLAGFYCGTQKLLRSVLAEKPELSFSVVSLLWHKLIAAPEIQPTAESTSAQQGWRQVVDALCNVVSATPAKAAAAVVLQAERELQPWIAKDDEEGQKMWKINQRIVKVLVELMRNHDRPESLVILASASDLLLRATDGMLVDGEACTLPQLELLEATARAIQPVLAWGPSGLAVVDGLSNLLKCRLPATIRCLSHPSAHVRALSTSVLRDIMNQSSIPIKVTPKLPTTEKNGMNSPSYRFFNAASIDWKADIQNCLNWEAHSLLSTTMPTQFLDTAARELGCTISLSQ
